Data: PubChem BioAssay AID463205 (Broad Institute, 2010)
The whole screen tested about 2,400 compounds, of which about 20 (0.8%) were called active.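 Rule for the calls: active = AC50 no more than ten times the highest tested concentration, or full inhibition at every dose giving a flat fit (cut at about 30 µM in these data); inconclusive = flat fit with activity between 30% and 70%, or poor-quality invalid fit; inactive = AC50 more than ten times the top tested dose.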 The list shows a part of the results.

assay: inhibitors of ADP-Glo detection reagents, dose response, artefact control for GSK-3a inhibitor project, biochemical, luminescence, cell-free, homogeneous (AID 463205); conditions: 5 uM ADP;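 note: kinase-free counter-screen against the ADP-Glo detection reagents only; potency is for inhibitors that reduce the luminescence signal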

AC50, inactive:
CS(=O)(=O)N1CCN(c2ccccc2NC(=O)c2cccs2)CC1 > 30 µM
CCCc1c(C(=O)N/N=C/C(C)=C/c2ccco2)nnn1-c1nonc1N > 30 µM
O=C(Nc1ccsc1C(=O)O)c1ccccc1 > 30 µM
COc1cc(C2CC(=O)N3CN(Cc4ccccc4)CSC3=C2C#N)ccc1OCc1ccccc1 (configuration not stated) > 30 µM
O=C(c1cccnc1NCc1ccccc1)N1CCOCC1 > 30 µM
CCN1CCN(c2nc(Nc3cccc(F)c3)nc(N)c2[N+](=O)[O-])CC1 > 30 µM
COc1ccc(C(=O)Nc2nc(C)cc(C)n2)cc1 > 30 µM
CNc1nnc(-c2cc3ccccc3oc2=O)s1 > 30 µM
CCOC(=O)c1cc[nH]c1C > 30 µM
COCC(O)CSc1nc(C)[nH]c1[N+](=O)[O-] (configuration not stated) > 30 µM
Cc1nc(NC(=O)c2ccccc2)sc1Cc1ccc2c(c1)OCO2 > 30 µM
COc1cc(/C=N/NC(=O)c2nnn(-c3nonc3N)c2-c2cccs2)ccc1O > 30 µM
CCCCOc1ccc(CSc2nc(C)[nH]c2[N+](=O)[O-])cc1[N+](=O)[O-] > 30 µM
Cc1ccc(CSc2nnc(SCC(=O)N/N=C/c3ccc(C(=O)O)cc3)s2)cc1 > 30 µM
Clc1ccc(-c2nc3ncccn3c2Nc2ccc3c(c2)OCO3)cc1 > 30 µM
CCc1c(C)sc(NC(=O)C2CC2c2ccccc2)c1C(N)=O (configuration not stated) > 30 µM
COc1cc(C2c3sc(=O)[nH]c3SC3C(=O)N(c4ccc(C)cc4)C(=O)C32)ccc1O (configuration not stated) > 30 µM
Cc1ccc2cc(C#N)c(N3CCCN(C(=S)NCCCN(C)C)CC3)nc2c1 > 30 µM
COc1ccc(CCNC(=O)CSc2nc3[nH]ncc3c(=O)n2-c2ccc(Br)cc2)cc1OC > 30 µM
COc1cc(C2CC(=O)c3c([nH]c(C(=O)OCCOC(C)C)c3C)C2)cc(OC)c1OC (configuration not stated) > 30 µM
COc1ccc2cc(C(N)=O)c(=Nc3ccc(C)cc3)oc2c1 > 30 µM
COc1c2ccccc2nc2ccccc12 > 30 µM
COCCCNC(=O)C(=O)NC1CCCCC1C (configuration not stated) > 30 µM
CCC(C)[C@H](NC(=O)NCc1ccccc1Cl)C(=O)OC (some centres not stated) > 30 µM
CCN(C(=O)CN1CCCCCC1)c1c(N)n(Cc2ccccc2)c(=O)[nH]c1=O > 30 µM
C/C(=N\NC(=O)c1nnn(-c2nonc2N)c1CN(C)C)c1ccco1 > 30 µM
Cc1sc2ncnc(N3CCC(C(=O)Nc4ccc(S(N)(=O)=O)cc4)CC3)c2c1C > 30 µM
CCOC(=O)CC1COc2ccccc2N1C(=O)c1ccc(C)cc1 (configuration not stated) > 30 µM
CCSc1nc2c(c(=O)[nH]1)C(c1ccccn1)C1=C(CC(C)(C)CC1=O)N2 (configuration not stated) > 30 µM
CCCCN(CC)C(=O)c1oc2ccc(S(=O)(=O)N3CCCC3)cc2c1C > 30 µM
CN(C)c1cccc(C(=O)N/N=C/c2ccccc2F)c1 > 30 µM
Cc1cc(NC(=O)CCSc2nc(-c3ccco3)cc(C(F)(F)F)n2)n(-c2ccccc2)n1 > 30 µM
CCOC(=O)CN1CC23C=CC(O2)C(C(=O)O)C3C1=O (configuration not stated) > 30 µM
Cc1cc(=O)[nH]c2c(C)cc(S(=O)(=O)Nc3ccc(O)cc3)cc12 > 30 µM
Cc1ccc(OCC(=O)N2CCN(c3nnc(-c4ccccc4)c4ccccc34)CC2)cc1 > 30 µM
CCN=C1S/C(=C/c2ccc(-c3ccc(Cl)cc3C(=O)O)o2)C(=O)N1CC > 30 µM
Cc1cccc(C(=O)O/N=C(\N)c2cccc([N+](=O)[O-])c2)c1 > 30 µM
Cc1cnc(NC(=O)C2CC(=O)N(c3cccc(Cl)c3)C2)s1 (configuration not stated) > 30 µM
CCN1C(=S)SC(=O)C1=C1C=C(C)N(Cc2ccco2)C(C)=C1 > 30 µM
O=C(O)c1cccc(Nc2nc(-c3cccnc3)nc3ccccc23)c1 > 30 µM
c1ccc2c(c1)CCc1c(-c3ccncc3)n[nH]c1-2 > 30 µM
CC1(C)CC(=O)C2=C(C1)Nc1nc(SCCN3CCOCC3)[nH]c(=O)c1C2c1cccs1 (configuration not stated) > 30 µM
CC(=O)c1c(O)cc(O)cc1CC(=O)O > 30 µM
O=C(COC(=O)c1ccc(F)cc1F)Nc1ccc(Cl)cn1 > 30 µM
CCOC(=O)/C(C#N)=C/c1cn(CCC(=O)O)nc1-c1cccc(Br)c1 > 30 µM
Cc1cccc(OCC(=O)NNC(=O)c2cc3ccccc3oc2=O)c1 > 30 µM
CCCNc1nc(Cl)nc(Nc2ccc(Cl)cc2)n1 > 30 µM
COc1ccc([C@H]2[C@H](C(=O)C(C)(C)C)N3N=Cc4ccccc4C3[C@]23N=C(c2ccccc2)OC3=O)cc1OC (some centres not stated) > 30 µM
CCOC(=O)CSc1ncnc2c(C(=O)OCC)c3n(c12)CCC3 > 30 µM
Cc1ccc(C(=O)N2NC(c3ccc(F)cc3)C3C(=O)N(c4ccc(C)cc4)C(=O)C32)cc1 (configuration not stated) > 30 µM
CC1CN(c2nc(N(C)c3ccccc3)nc(N)c2[N+](=O)[O-])CC(C)O1 (configuration not stated) > 30 µM
O=C(O)Cn1c(=O)c2c3c(sc2n(Cc2ccc(Cl)cc2Cl)c1=O)CCCC3 > 30 µM
C/C(=C/c1oc2ccc(O)cc2c1[N+](=O)[O-])N(C)C > 30 µM
COC(=O)c1cccc(Nc2nc(-c3cccnc3)nc3ccccc23)c1 > 30 µM
COc1cccc(CCNC(=O)c2cc(COc3c(F)cccc3F)on2)c1 > 30 µM
COCCn1c(SCC(=O)Nc2cc(C)on2)nc2ccccc21 > 30 µM
Cc1nc2ncnn2c(C)c1Cc1c(Cl)cccc1Cl > 30 µM

Structural class: the entries above containing bromine (2)
AC50, inactive:
COc1ccc(CCNC(=O)CSc2nc3[nH]ncc3c(=O)n2-c2ccc(Br)cc2)cc1OC > 30 µM
CCOC(=O)/C(C#N)=C/c1cn(CCC(=O)O)nc1-c1cccc(Br)c1 > 30 µM
